From PubChem BioAssay AID504847 (National Center for Advancing Translational Sciences (NCATS), 2011)
About 3,700 (0.93%) of roughly 400,000 compounds were called active. This list was built around the results that the source calls inconclusive (neither active nor inactive); the mix of calls is not that of the screen. Calls come from the whole dose curve; as a rule, active = well fitted inhibition curve with a large enough effect; inconclusive = small, poorly fitted or top-dose-only effect, or another doubt; inactive = no such curve, though single readings can be large or run the other way. Potencies beside an inconclusive call are fits to weak or partial responses and may not hold up. Some compounds were tested as several samples or in several runs, with calls that do not always agree.

Protein sequences, listed by entry. Tags and fused reporters are not part of them.
UniProt P11473, whole entry, looked up: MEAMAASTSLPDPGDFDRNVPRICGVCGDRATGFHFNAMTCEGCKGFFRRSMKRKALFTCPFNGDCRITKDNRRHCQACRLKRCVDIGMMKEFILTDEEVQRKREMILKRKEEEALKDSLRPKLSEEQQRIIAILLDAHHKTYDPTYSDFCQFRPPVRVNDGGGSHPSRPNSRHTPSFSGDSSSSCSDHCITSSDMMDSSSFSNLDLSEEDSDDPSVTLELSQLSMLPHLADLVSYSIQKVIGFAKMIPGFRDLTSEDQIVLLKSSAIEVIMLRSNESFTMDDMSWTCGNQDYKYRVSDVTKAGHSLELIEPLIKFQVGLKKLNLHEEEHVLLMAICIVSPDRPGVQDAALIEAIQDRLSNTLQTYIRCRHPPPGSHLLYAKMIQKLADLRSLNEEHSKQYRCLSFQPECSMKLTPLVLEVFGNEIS

molecular target: Vitamin D3 receptor (Homo sapiens) (UniProt P11473); test: Inhibitors of the vitamin D receptor (VDR): qHTS; conditions: VDR-SRC2-3 peptide fluorescence polarization, 2 h; max response, negative = inhibition: hits give low values
Outline: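 Compounds are added to VDR with labelled SRC2-3 coactivator peptide and held 2 h at room temperature. Inhibition of the VDR–peptide interaction is then read as a change in fluorescence polarization.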
% is set by controls: 0 for no effect and ±100 for the full control effect; potency is the fitted concentration of half-maximal effect.

Row | Compound | Potency | max response, negative = inhibition
1 | CCSc1nnc(Cn2c(=O)sc3ccccc32)n1C | inconclusive: 56.2 µM [inhibitor, partial curve, poor fit] | –
2 | COC(=O)C1=C(C(=O)OC)SC2(S1)C(C(=O)OC)=C(C(=O)OC)SC1=C2c2cc(C)ccc2NC1(C)C | inconclusive: 28.2 µM [inhibitor, full curve, poor fit] | –
3 | O=C(CSc1ccc2nnc(-c3ccncc3)n2n1)Nc1ccc2c(c1)OCO2 | – | inactive: -6.97%
4 | COc1ccccc1OCC(=O)Sc1ccc(C)cc1 | inconclusive: 28.2 µM [inhibitor, full curve, poor fit] | –
5 | C=CCn1c(-c2ccccc2)nc(=S)c2c1CCCC2 | – | inactive: -4.95%
6 | C[C@@H](C(=O)NCc1ccco1)N1C(=O)N2CCc3c([nH]c4ccccc34)[C@@]2(C)C1=O | inconclusive: 3.16 µM [inhibitor, partial curve, poor fit] | –
7 | CC(=O)Nc1ccc(C=C(C(C)=O)C(C)=O)cc1 | inconclusive: 79.4 µM [inhibitor, single point] | –
8 | CN(C)C(=O)c1ccc(-c2nc(Nc3ccccc3)c3ccccc3n2)cc1 | active: 39.8 µM | –
9 | CCCCc1nc(NCC2CCCO2)c(C#N)c2c1COC(C)(C)C2 (stereo not given) | – | inactive: -2.53%
10 | COc1ccccc1Cc1nnc(NC(=O)C2CCN(C(=O)c3ccco3)CC2)s1 | inconclusive: 100 µM [inhibitor, single point] | –
11 | CCC(C(=O)Nc1cc(OC)ccc1OC)n1nc(-c2ccccc2)c2c(c1=O)CCCC2 (stereo not given) | – | inactive: 1.37%
12 | CN(C)S(=O)(=O)N(CC(=O)NCCSc1ccc(Cl)cc1)c1ccccc1 | inconclusive: 89.1 µM [inhibitor, single point] | –
13 | O=C(COCc1cc(-c2ccc3c(c2)OCO3)on1)N1CCN(c2cccc(C(F)(F)F)c2)CC1 | inconclusive: 39.8 µM [inhibitor, partial curve, poor fit] | –
14 | CCNC(=S)Nc1cc(C)ccn1 | – | inactive: -7.92%
15 | COc1cccc(/C=C/C(=O)OCC(=O)NCCC2=CCCCC2)c1 | inconclusive: 20 µM [inhibitor, single point] | –
16 | CC[C@H](C)C(=O)O[C@H]1C[C@@H](C)C=C2C=C[C@H](C)[C@H](CC[C@@H]3C[C@@H](O)CC(=O)O3)[C@H]21 | active: 50.1 µM | –
17 | O=C(Nc1cc([N+](=O)[O-])ccc1O)c1ccc2c(c1)C(=O)N(Cc1ccco1)C2=O | inconclusive: 89.1 µM [inhibitor, single point] | –
18 | COC(=O)c1c(NC(=O)CN2C(=O)NC3(CCC(C(C)(C)C)CC3)C2=O)sc2c1CCCCC2 (stereo not given) | inconclusive: 89.1 µM [inhibitor, partial curve, poor fit] | –
19 | CS(=O)(=O)N(Cc1cccc(CN(C(C(=O)O)c2ccccc2)S(C)(=O)=O)c1)C(C(=O)O)c1ccccc1 (stereo not given) | inconclusive: 56.2 µM [inhibitor, partial curve, poor fit] | –
20 | Cn1c(=O)c2c(nc(NC(Cc3ccccc3)C(=O)O)n2Cc2ccccc2)n(C)c1=O (stereo not given) | inconclusive: 44.7 µM [inhibitor, partial curve, poor fit] | –
21 | COCCOC(=O)/C(C#N)=C/c1cn(Cc2ccccc2)nc1-c1cccnc1 | inconclusive: 89.1 µM [inhibitor, single point] | –
22 | Cc1ccc(S(=O)(=O)Oc2ccc(C(c3c(C)[nH][nH]c3=O)c3c(C)[nH][nH]c3=O)cc2)cc1 | inconclusive: 79.4 µM [inhibitor, partial curve, poor fit] | –

Row | Compound | Potency | max response, negative = inhibition
23 | O=C(COC(=O)c1cccc(S(=O)(=O)N2CCc3ccccc32)c1)NCc1ccco1 | inconclusive: 50.1 µM [inhibitor, partial curve, poor fit] | –
24 | COc1cc(/C=N/Nc2ccc(Cl)c(C(=O)O)c2)ccc1OCC(=O)N1C(C)CCCC1C (stereo not given) | – | inactive: -1.31%
25 | CCOc1ccccc1/C=C(\C#N)C(=O)NC1CC1 | inconclusive: 89.1 µM [inhibitor, partial curve, poor fit] | –
26 | CCOc1cc(/C=N/O)ccc1OCc1ccc(F)cc1 | active: 50.1 µM | –
27 | Cc1cc(Nc2ccc(Br)c(C)c2)n2nc(C)nc2n1 | inconclusive: 89.1 µM [inhibitor, partial curve] | –
28 | COc1ccc(NC(=S)Nc2cccc(Cl)c2)cc1OC | – | inactive: 7.12%
29 | CCc1c(C)nc2c(-c3ccccc3)c[nH]n2c1=O | – | inactive: 4.89%
30 | Cc1ccc(/C=C/C(=O)c2ccc([N+](=O)[O-])o2)cc1 | active: 5.62 µM | –
31 | CC1(OC(=O)C2CCCC2)C(=O)C=C2C=C(C3CC3)OC=C2C1=O (stereo not given) | inconclusive: 89.1 µM [inhibitor, partial curve, poor fit] | –
32 | O=C1CSC(=S)N1/N=C/c1ccc(C(F)(F)F)cc1 | inconclusive: 79.4 µM [inhibitor, partial curve, poor fit] | –
33 | Cc1cccc(NC(=O)/C=C/c2ccc([N+](=O)[O-])s2)c1 | inconclusive: 89.1 µM [inhibitor, single point] | –
34 | O=C(Nc1cccc2nsnc12)c1cc2c(cc1Cl)Sc1nccn1S2(=O)=O | inconclusive: 89.1 µM [inhibitor, single point] | –
35 | COc1ccc(N(C(=O)c2ccccc2C)S(=O)(=O)c2ccc3c(c2)n(C)c(=O)n3C)cc1 | – | inactive: 4.54%
36 | O=C(Nc1ccc2c(c1)OCCO2)c1coc2ccccc2c1=O | – | inactive: -10.5%
37 | CC(C)OC(=O)C(C(=O)C(F)(F)F)c1cc(NS(=O)(=O)c2ccc3ccccc3c2)c2ccccc2c1O (stereo not given) | inconclusive: 89.1 µM [inhibitor, single point] | –
38 | CSc1ccccc1NC(=O)COc1ccc(Cl)cc1Cl | inconclusive: 63.1 µM [inhibitor, partial curve, poor fit] | –
39 | COc1ccc(-n2c(=O)c(-c3ccccc3)nc3cnc(N4CCOCC4)nc32)cc1 | inconclusive: 89.1 µM [inhibitor, partial curve, poor fit] | –
40 | COCc1cc(=O)[nH]c(SCCS(=O)(=O)c2ccc(Cl)cc2Cl)n1 | inconclusive: 63.1 µM [inhibitor, partial curve, poor fit] | –
41 | COc1ccccc1OCC(=O)NCC(c1cccs1)N1CCOCC1 (stereo not given) | inconclusive: 7.94 µM [inhibitor, partial curve, poor fit] | –
42 | CCOc1ccc(C(=O)C(CCC(CN(C)C)C(=O)c2ccc(OCC)cc2)CN(C)C)cc1 (stereo not given) | inconclusive: 17.8 µM [inhibitor, single point] | –
43 | CC(SC1=NCCS1)C(=O)Nc1nnc(-c2ccc(F)cc2)s1 (stereo not given) | inconclusive: 89.1 µM [inhibitor, single point] | –
44 | Cc1ccc(CNC(=O)CCCOc2cc(=O)n(C)c3ccccc23)o1 | – | inactive: -15.7%

Sorted by formula weight (smallest number first): some entries from above.
Row | Compound | Potency | max response, negative = inhibition
25 | CCOc1ccccc1/C=C(\C#N)C(=O)NC1CC1 | inconclusive: 89.1 µM [inhibitor, partial curve, poor fit] | –
17 | O=C(Nc1cc([N+](=O)[O-])ccc1O)c1ccc2c(c1)C(=O)N(Cc1ccco1)C2=O | inconclusive: 89.1 µM [inhibitor, single point] | –
12 | CN(C)S(=O)(=O)N(CC(=O)NCCSc1ccc(Cl)cc1)c1ccccc1 | inconclusive: 89.1 µM [inhibitor, single point] | –

Additional records

Row | Compound | Potency | max response, negative = inhibition
45 | CCn1nccc1C(=O)Nc1ccccc1OC | – | inactive: -0.895%
46 | O=[N+]([O-])c1ccc(S(=O)(=O)c2ccccc2)nc1 | active: 39.8 µM | –
47 | COc1cccc(C(=O)c2cn(CC(=O)Nc3cccc(Cl)c3C)c3nc(C)ccc3c2=O)c1 | – | inactive: 6.92%
48 | COc1ccc(C(=O)NCC(C)NC(=O)c2ccc(OC)cc2)cc1 (stereo not given) | inconclusive: 89.1 µM [inhibitor, partial curve, poor fit] | –
49 | COc1c2n(C)ccc3c-2n(c(=O)c1=O)c1ccccc31 | inconclusive: 100 µM [inhibitor, single point] | –
50 | Cc1cccc(N2CCN(C(=O)c3c4c(nc5ccccc35)C(=O)N(C3CCCCC3)C4)CC2)c1C | – | inactive: 11.6%
51 | COc1ccccc1NS(=O)(=O)c1cc(NC(=S)NCCN2CCOCC2)ccc1N1CCOCC1 | active: 79.4 µM | –
52 | Cc1ccc(CC(=O)NCc2nc(-c3cccc(C)c3)no2)cc1 | – | inactive: 18.6%
53 | COc1ccccc1/C=C/C=c1\sc2nc(=O)c(Cc3ccccc3)nn2c1=O | inconclusive: 79.4 µM [inhibitor, partial curve, poor fit] | –
54 | CCNC(=O)C1CCCc2c1[nH]c1ccc(Cl)cc21 (stereo not given) | – | inactive: -9.98%
55 | COc1ccc(C(=O)Nc2ccc3c(c2)N(C)C(=O)c2ccccc2S3)cc1OC | – | inactive: 12.9%
56 | COC(=O)[C@@]1(C)[C@H]2C(=O)N(C)C(=O)[C@H]2[C@H]2CN=C(SCC(=O)c3ccccc3)N21 | active: 31.6 µM | –
57 | CSc1nc(-c2ccc(Cl)cc2)nn1C(=O)c1ccccc1 | inconclusive: 89.1 µM [inhibitor, single point] | –
58 | O=[N+]([O-])/C=C\c1ccc(N2CCOCC2)cc1 | active: 25.1 µM | –
59 | Cc1cccc(NC(=O)/C(C#N)=C/c2cccc([N+](=O)[O-])c2)n1 | inconclusive: 100 µM [inhibitor, single point] | –
60 | COc1ccc(S(=O)(=O)Nc2c(O)ccc3ccccc23)cc1OC | inconclusive: 15.8 µM [inhibitor, full curve] | –
61 | O=C(CSc1nnc(SCc2ccccc2)s1)N/N=C/C=C\c1ccco1 | inconclusive: 100 µM [inhibitor, single point] | –
62 | COc1ccc(CCNC(=S)Nc2ccc(C(C)C)cc2)cc1 | – | inactive: -7.7%
63 | O=C(N/N=C/c1cccc2ccccc12)c1cc2ccccc2o1 | inconclusive: 89.1 µM [inhibitor, single point] | –
64 | CN(C(=O)CC1C(=O)NCCN1Cc1ccccc1C(F)(F)F)C1CCOCC1 (stereo not given) | inconclusive: 14.1 µM [inhibitor, partial curve, poor fit] | –
65 | Cc1cc(C)c(NC(=O)c2cc(S(=O)(=O)N3CCOCC3)ccc2F)c(C)c1 | inconclusive: 35.5 µM [inhibitor, partial curve, poor fit] | –
